# Measurements taken from PubChem BioAssay AID743255 (National Center for Advancing Translational Sciences (NCATS), 2014).
# Sequences of proteins named here, by UniProt entry; tags and fusion partners are left off. A change or cut given only in a name is not applied to a line headed by its entry.
# UniProt O94782: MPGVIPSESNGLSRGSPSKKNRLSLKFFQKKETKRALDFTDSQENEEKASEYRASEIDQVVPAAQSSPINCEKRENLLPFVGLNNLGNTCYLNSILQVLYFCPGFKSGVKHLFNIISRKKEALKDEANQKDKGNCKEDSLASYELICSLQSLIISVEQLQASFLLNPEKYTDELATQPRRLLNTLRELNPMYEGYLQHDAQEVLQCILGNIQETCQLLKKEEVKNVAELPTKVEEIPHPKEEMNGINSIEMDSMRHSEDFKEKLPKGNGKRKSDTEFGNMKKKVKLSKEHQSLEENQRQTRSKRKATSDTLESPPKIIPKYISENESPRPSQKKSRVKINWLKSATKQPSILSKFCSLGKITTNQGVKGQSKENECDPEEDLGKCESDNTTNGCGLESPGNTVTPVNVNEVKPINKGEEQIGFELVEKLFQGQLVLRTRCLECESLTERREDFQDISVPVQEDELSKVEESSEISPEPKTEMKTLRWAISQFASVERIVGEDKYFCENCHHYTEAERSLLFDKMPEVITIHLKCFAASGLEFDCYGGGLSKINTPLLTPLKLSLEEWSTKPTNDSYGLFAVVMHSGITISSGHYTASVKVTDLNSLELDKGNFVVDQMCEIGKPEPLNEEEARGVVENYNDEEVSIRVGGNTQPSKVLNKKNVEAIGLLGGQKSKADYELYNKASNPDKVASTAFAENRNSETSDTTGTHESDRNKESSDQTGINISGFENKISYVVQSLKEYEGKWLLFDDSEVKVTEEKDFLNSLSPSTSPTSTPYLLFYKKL
# Hit rate of the full screen: of about 390,000 compounds, about 910 (0.23%) were called active. Inconclusive means that the source gave no clear call. Such entries were picked first, then a sample of the others. The call rests on the fitted dose curve; in most records, active means well fitted inhibition curve with a large enough effect; inconclusive means small, poorly fitted or top-dose-only effect; inactive means no such curve, though single readings can be large or run the other way. A potency beside an inconclusive call is a rough fit, not a confirmed value.
# Molecular target: Ubiquitin carboxyl-terminal hydrolase 1 (Homo sapiens) (UniProt O94782)
# Experiment: Inhibitors of USP1/UAF1: Primary Screen; further: nearly all actives have a fitted effect of over 60% in size
# Conditions: recombinant USP1/UAF1, Ub-Rhodamine cleavage fluorescence; activity change, negative = inhibition: at 57.1 µM (top of the series)
# In short: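 In this screen, compounds sit with the deubiquitinase complex (1nM) for 15 min at room temperature before Ub-Rho is added at 150nM final. Fluorescence rise is then followed for 6 reads every 60 seconds.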
# On the % scale 0 is the no-effect control and ±100 the full control effect; potency means the concentration at half of the fitted maximal effect.
SMILES,Potency,"activity change, negative = inhibition"
O=C(Cc1ccc([N+](=O)[O-])cc1)Nc1cccc(C(=O)N2CCCCC2)c1,"inconclusive: 35.5 µM [inhibitor, partial curve, poor fit]",
COc1ccc(OC)c(NCc2cccn2-c2nnc(N3CCCCC3)s2)c1,"inconclusive: 44.7 µM [inhibitor, partial curve, poor fit]",
c1ccc(-c2nc(C3CCCCC3)c3ccccc3n2)cc1,"inconclusive: 0.0501 µM [inhibitor, full curve, poor fit]",
COC(=O)/C(=C\C(=O)c1ccccc1)Nc1ccc(OC)cc1,"inconclusive: 2 µM [inhibitor, full curve]",
O=C(NCc1cccnc1)c1cn(-c2ccccc2)nc1-c1cccs1,"inconclusive: 5.62 µM [inhibitor, full curve, poor fit]",
COc1ccc(CNC(=O)Cn2ncc3c4ccccc4n(Cc4cccc(Cl)c4)c3c2=O)cc1,"inconclusive: 56.2 µM [inhibitor, partial curve, poor fit]",
CCCn1c(CN2CCCCC2CC)nc2c1c(=O)n(C)c(=O)n2C (stereo not given),"inconclusive: 7.94 µM [inhibitor, partial curve, poor fit]",
O=C(O)C1CCCN1C(=O)c1cncc(Br)c1 (stereo not given),"inconclusive: 50.1 µM [inhibitor, partial curve, poor fit]",
CC1=Nc2ccccc2/C1=C/c1c(N)n2c(S(=O)(=O)C(C)C)nsc2nc1=O,"inconclusive: 31.6 µM [inhibitor, partial curve]",
O=S(=O)(/N=S1\CC=CCN1S(=O)(=O)c1ccccc1)c1ccccc1 (stereo not given),"inconclusive: 39.8 µM [inhibitor, single point]",
COc1cc(C2NC(=O)c3c(sc4c3CCN(C)C4)N2)cc(Br)c1OC(=O)c1ccc(C)cc1 (stereo not given),"inconclusive: 50.1 µM [inhibitor, partial curve, poor fit]",
COc1ccc(OC)c(NC(=O)c2c(N3CCCC3=O)c3cc(OC)ccc3n2C)c1,"inconclusive: 31.6 µM [inhibitor, partial curve]",
Cc1ccc(/C=C2\CCC(C3CCCC3)C2=O)cc1 (stereo not given),,inactive: -19.9%
NS(=O)(=O)c1cccc(NC(=O)COc2ccc([N+](=O)[O-])cc2)c1,,inactive: -7.02%
CCn1c2ccccc2c2cc(NC(=O)COc3ccc(C)cc3C)ccc21,"inconclusive: 56.2 µM [inhibitor, single point]",
O=C1CCCC2=C1C(c1ccncc1)Nc1ccccc1N2 (stereo not given),,inactive: -1.45%
CN(C)/C=N/c1c(C#N)cnn1-c1ccc(C(F)(F)F)cn1,"inconclusive: 28.2 µM [inhibitor, partial curve]",
O=C(O)c1cc2cccc(S(=O)(=O)N3CCOCC3)c2cc1O,,inactive: -21%
CCOc1cc(/C=C(/NC(C)=O)C(=O)O)cc(Cl)c1OCc1cccc(Br)c1,"inconclusive: 39.8 µM [inhibitor, partial curve]",
CCc1ccc(CNC(=O)C(C)n2ccc3cc(S(=O)(=O)N4CCCCCC4)ccc32)cc1 (stereo not given),"inconclusive: 17.8 µM [inhibitor, partial curve]",

# An excerpt from above in order of count of non-hydrogen atoms, descending.
SMILES,Potency,"activity change, negative = inhibition"
CCn1c2ccccc2c2cc(NC(=O)COc3ccc(C)cc3C)ccc21,"inconclusive: 56.2 µM [inhibitor, single point]",
CCCn1c(CN2CCCCC2CC)nc2c1c(=O)n(C)c(=O)n2C (stereo not given),"inconclusive: 7.94 µM [inhibitor, partial curve, poor fit]",
COC(=O)/C(=C\C(=O)c1ccccc1)Nc1ccc(OC)cc1,"inconclusive: 2 µM [inhibitor, full curve]",

# (listing goes on)

SMILES,Potency,"activity change, negative = inhibition"
COc1ccc(N2CCN(C(=O)CCn3c(=O)[nH]c4cc(OC)c(OC)cc4c3=O)CC2)cc1,"inconclusive: 0.282 µM [inhibitor, full curve, poor fit]",
CCn1c(SCC#N)nc2c(c1=O)C1(CCCC1)Cc1ccccc1-2,,inactive: -22.4%
O=C(c1ccco1)N1N=C(c2cccs2)CC1c1ccccc1O (stereo not given),,inactive: -3.26%
CCOc1cccc(OCCOCCNC(C)(C)C)c1,,inactive: -1.05%
CN(C)c1ncc(C2=C(Cl)C(=O)C(N3CCCC3)=C(Cl)C2=O)s1,"inconclusive: 28.2 µM [inhibitor, single point]",
Cn1c(=O)c(=O)n(C)c2cc(S(=O)(=O)CCC(=O)N3CCOCC3)ccc21,,inactive: -23.7%
Cc1ccc(C)c(N2CCN(C(=O)Cn3nc(C)c4sc5ccccc5c4c3=O)CC2)c1,"inconclusive: 3.98 µM [inhibitor, partial curve]",
COc1ccccc1NS(=O)(=O)c1cn(C)c(C)n1,"inconclusive: 7.08 µM [inhibitor, single point]",
COc1cc(NC(=O)c2ccccc2F)c(OC)cc1NC(=O)CN1CCCCC1,"inconclusive: 6.31 µM [inhibitor, single point]",
Oc1sc(C=Nc2ccccc2)c2ccccc12,active: 28.2 µM,
CC1CC2OC2CC1COC(=O)C1CC2OC2CC1C (stereo not given),"inconclusive: 0.251 µM [inhibitor, full curve, poor fit]",
O=C(CSc1nnc(NC(=O)c2ccc(F)cc2)s1)NC1CC1,"inconclusive: 39.8 µM [inhibitor, partial curve, poor fit]",
COc1ccc(Cl)cc1NC(=O)CN(C)CC(=O)Nc1ccc(S(N)(=O)=O)cc1,"inconclusive: 35.5 µM [inhibitor, partial curve]",
CCN(CC)S(=O)(=O)c1ccc(N2CCN(C)CC2)c(NC(=O)c2cc(=O)c3ccccc3o2)c1,"inconclusive: 35.5 µM [inhibitor, single point]",
CC(=O)O[C@@H]1[C@H](OC(=O)CC(C)C)c2c(ccc3ccc(=O)oc23)OC1(C)C,"inconclusive: 7.94 µM [inhibitor, partial curve]",
O=C(NCc1ccc(OC(F)(F)F)cc1)C1CC(c2c(Cl)cccc2Cl)=NO1 (stereo not given),"inconclusive: 44.7 µM [inhibitor, partial curve]",
COc1ccccc1CNC(=O)c1cc(S(=O)(=O)N2CCCC(C)C2)cn1C (stereo not given),"inconclusive: 50.1 µM [inhibitor, partial curve, poor fit]",
COc1ccc(NC(=O)Nc2cc(C(=O)NCc3ccc(C)cc3)ccc2N2CCCC2)cc1,"inconclusive: 0.112 µM [inhibitor, full curve, poor fit]",
COc1cccc(C=Nc2cc(C(C)C)c(O)cc2C)c1O,"inconclusive: 28.2 µM [inhibitor, partial curve]",
CC(C)C[C@H](NC(=O)c1nc[nH]c1C(=O)N1CCc2ccccc2C1)C(=O)OCc1ccccc1,"inconclusive: 31.6 µM [inhibitor, partial curve]",
